Measurements as given in the supplement of paper PMC10735217.
Counter-ions that a name gives are not always drawn. Some of the results follow. Single values are uncertain here, since repeats match poorly.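 In a drug-repurposing library screen, luminescence reads luciferase driven by eight TEAD-binding elements, stably integrated into human kidney-derived cells. Compounds scoring over five robust Z scores above the plate mean are called hits.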

Test system: HEK293A TEAD-LUC reporter
Experiment: TEAD-luciferase reporter activity (YAP activation), robust Z score vs plate; higher = stronger YAP/TEAD activation
Conditions: 24 h

Structure (SMILES) | TEAD-luciferase reporter activity (compound concentration: 200 nM) | TEAD-luciferase reporter activity (compound concentration: 2 uM) | TEAD-luciferase reporter activity (compound concentration: 10 uM)
CC(CCc1ccc(O)cc1)NCC(O)c1ccc(O)cc1 (stereo not drawn) [butopamine] | inactive: 0.296 | inactive: -1.42 | inactive: 0.467
O=C(O)c1ccc(NC2OCC(O)C(O)C2O)cc1 (stereo not drawn) [benaxibine] | inactive: -0.868 | inactive: -0.0448 | inactive: 1.4
COc1cc(CCN(C)CCCNC(=O)C/C=C/c2ccc(-n3ccnc3)cc2)cc(OC)c1 | inactive: -1.32 | inactive: -1.71 | inactive: -0.0301
Cc1ccc([C@@H]2O[C@H](CO)[C@@H](O)[C@H](O)[C@H]2O)cc1Cc1ccc(-c2ccc(F)cc2)s1 [Canagliflozin] | inactive: -0.896 | inactive: -3.32 | inactive: -2.37
C[C@H](C#Cc1ccc(Oc2ccc(F)cc2)o1)N(O)C(N)=O | inactive: -1.69 | inactive: -0.107 | inactive: 1.58
O=C(c1ccc2c(c1)OCO2)N1CCC(N2CCOCC2=O)CC1 | inactive: 2.07 | – | inactive: 0.943
CCN(CC)CCCC(C)Nc1ccnc2cc(Cl)ccc12 (stereo not drawn) [chloroquine, DualTPharma] | inactive: -0.0598 | – | inactive: 3.54
CCC(=O)O[C@]1(C(=O)SCF)[C@H](C)C[C@H]2[C@@H]3C[C@H](F)C4=CC(=O)C=C[C@]4(C)[C@@]3(F)[C@@H](O)C[C@@]21C [Fluticasone propionate] | – | inactive: -0.214 | –
CN(C)CCOCCOC(=O)N1c2ccccc2Sc2ccccc21 | inactive: -1.18 | inactive: -0.867 | inactive: -0.383
CCCS(=O)(=O)N1CCN(Cc2ccc(NC(=O)c3ccc(-c4cc(NC(=O)C5CC5)ccc4OC(F)(F)F)cc3)cc2)CC1 | inactive: -0.303 | inactive: 0.733 | inactive: 2.39
CCC(=C(c1ccc(OCCN(C)C)cc1)c1ccc(OP(=O)(O)O)cc1)c1ccc(C(C)C)cc1 [Miproxifene phosphate] | inactive: 0.0527 | inactive: -1.43 | inactive: 0.405
OC(CN1CCCCC1)c1cc(-c2ccccc2)on1 (stereo not drawn) [perisoxal citrate] | inactive: 0.183 | inactive: -1.02 | inactive: 2.19
CCOC(=O)Nc1ccc2c(c1)N(C(=O)CCN1CCOCC1)c1ccccc1S2 [moracizine] | inactive: -1.2 | inactive: -1.52 | inactive: 0.943
CN(CC(=O)NO)C(=O)[C@@H]1CCCC[C@@H]1C(=O)O | inactive: 0.533 | inactive: -0.636 | inactive: 3.89
CCC(C)(C)C(=O)C(=O)N1CCC[C@H]1C(=O)OCCCc1cccnc1 | inactive: -0.51 | inactive: -0.843 | inactive: 3.7
OCCN1C[C@H](O)[C@@H](O)[C@H](O)[C@H]1CO | inactive: -0.444 | – | inactive: 0.867
OCCN1C[C@H](O)[C@@H](O)[C@H](O)[C@H]1CO [miglitol] | – | inactive: 0.191 | –
CCOC(=O)CC(=O)N1CCSC1COc1ccccc1OC (stereo not drawn) [Moguisteine] | inactive: -1.34 | inactive: 1.54 | inactive: 2.35
CC1(C)S[C@@H]2[C@H](NC(=O)C3(N)CCCCC3)C(=O)N2[C@H]1C(=O)O [ciclacillin] | inactive: 0.653 | inactive: 2.39 | inactive: 2.96

Structure (SMILES) | TEAD-luciferase reporter activity (compound concentration: 200 nM) | TEAD-luciferase reporter activity (compound concentration: 2 uM) | TEAD-luciferase reporter activity (compound concentration: 10 uM)
C/N=c1/[nH]cc(-c2ccc3c(=O)c(C(=O)O)cn(C4CC4)c3c2C)cc1C | inactive: 1.58 | inactive: 0.115 | inactive: -0.149
CC(=O)[C@@]1(O)CCC2C3CCC4=CC(=O)CCC4(C)C3CCC21C (stereo partly drawn) | inactive: 1.12 | inactive: -0.424 | inactive: 2.4
CC(=O)NC(CC(=O)O)C(=O)NC(CCC(=O)O)C(=O)O (stereo not drawn) | inactive: -1.2 | inactive: -0.0933 | inactive: 0.501
FC(F)(F)c1ccc2c(c1)N(CCCN1CCN(C34CC5CC(CC(C5)C3)C4)CC1)c1ccccc1S2 | inactive: 1.11 | inactive: -1.38 | inactive: 0.778
O=c1[nH]c(=O)n([C@H]2C[C@H](OCc3ccccc3)[C@@H](CO)O2)cc1C(F)(F)F | inactive: 0.544 | inactive: -0.771 | inactive: 0.624
COc1cnc(-n2cnc(C)n2)c2c1c(C(=O)C(=O)N1CCN(C(=O)c3ccccc3)CC1)cn2COP(=O)(O)O [Fostemsavir] | inactive: -0.832 | inactive: -0.999 | inactive: 0.845
CCc1cccc(N(C)C(=N)Nc2cccc3ccccc23)c1 | inactive: 0.189 | inactive: 1.29 | inactive: -0.149
CC(C)=CCOc1cc(NC(=O)c2ccccc2C)ccc1Cl | inactive: 0.0687 | inactive: 0.578 | inactive: -0.634
CC(C)(Oc1ccc(Cl)cc1)C(=O)OC(COC(=O)c1cccnc1)COC(=O)c1cccnc1 [Binifibrate] | inactive: -0.523 | inactive: -0.946 | inactive: 3.44
COC(=O)c1cc(CCc2cc(OC)ccc2OC)ccc1O | inactive: -0.63 | inactive: -1.15 | inactive: -0.713
O=C1Nc2ccccc2CC12CN(CC1CCCC1)C2 | inactive: 2.91 | – | inactive: 0.894
CC(=O)N[C@@H](CSC/C=C(\C)CC/C=C(\C)CCC=C(C)C)C(=O)O [N-Acetyl-S-farnesyl-L-cysteine] | – | inactive: -2.75 | –
CC(=O)N[C@@H](CSC/C=C(\C)CC/C=C(\C)CCC=C(C)C)C(=O)O | inactive: -1.01 | – | inactive: 2.26
CCCCCCCCN=c1ccn(CCCCCCCCCCn2ccc(=NCCCCCCCC)cc2)cc1 [octenidine] | inactive: 3.43 | inactive: 1.26 | inactive: -1.39
Oc1cc(O)c2cc(O)c(-c3cc(O)c(O)c(O)c3)[o+]c2c1 | inactive: -1.46 | inactive: -0.692 | inactive: 1.59
COCCCS(=O)(=O)c1ccc(-c2ccc(CCN3CCC[C@@H]3C)cc2)cc1 | inactive: -1.02 | inactive: 0.27 | inactive: -1.32
CCOP(=O)(CCCCCCOc1ccc(Cl)cc1OC)OCC | inactive: 0.222 | inactive: -0.71 | inactive: 0.815
CCC(C)(C)/N=C(/NC#N)N[C@H]1c2cc(C#N)ccc2OC(C)(C)[C@@H]1O | inactive: 1.4 | inactive: -0.379 | inactive: -0.798
CN(CC(=O)O)C(=N)N [Creatine] | inactive: 0.234 | inactive: 1.63 | inactive: 1.33

Random excerpt: 2 entries already listed, in no set order.
Structure (SMILES) | TEAD-luciferase reporter activity (compound concentration: 200 nM) | TEAD-luciferase reporter activity (compound concentration: 2 uM) | TEAD-luciferase reporter activity (compound concentration: 10 uM)
CC(=O)N[C@@H](CSC/C=C(\C)CC/C=C(\C)CCC=C(C)C)C(=O)O | inactive: -1.01 | – | inactive: 2.26
COc1cnc(-n2cnc(C)n2)c2c1c(C(=O)C(=O)N1CCN(C(=O)c3ccccc3)CC1)cn2COP(=O)(O)O [Fostemsavir] | inactive: -0.832 | inactive: -0.999 | inactive: 0.845

Next entries follow:

Structure (SMILES) | TEAD-luciferase reporter activity (compound concentration: 200 nM) | TEAD-luciferase reporter activity (compound concentration: 2 uM) | TEAD-luciferase reporter activity (compound concentration: 10 uM)
O=C(c1ccc2c(c1)OCO2)N1CCC(N2CCNC2=O)CC1 | inactive: 2.76 | – | inactive: 2.54
COc1ccc([C@]2(C#N)CC[C@H](C(=O)O)CC2)c2c1OCCO2 | inactive: 0.275 | inactive: 0.0992 | inactive: 0.51
CCC(c1ccccc1)c1noc(CCN(CC)CC)n1 (stereo not drawn) | inactive: 0.0654 | inactive: -1.51 | inactive: -0.372
O=C(O)Cc1ccc2c(c1)C(=O)c1ccccc1CO2 [Isoxepac] | inactive: -0.981 | inactive: -0.72 | inactive: -1.08
CN1CCN(c2ccc(Nc3ncc4cc(C#N)c(=O)n(C5CCCC5)c4n3)cc2)CC1 | inactive: 1.25 | inactive: -1 | inactive: -0.0644
COc1ccc(-c2cc(C(F)F)nn2-c2ccc(S(N)(=O)=O)cc2)cc1F | inactive: -0.417 | inactive: 0.00421 | inactive: 2.45
O=C(Nc1cccc(O)c1)c1ccc(O)c(O)c1 | inactive: 1.62 | inactive: 4.29 | inactive: -0.0635
CCCCCCCCCCCC(=O)c1ccc(OCC[N+](C)(C)Cc2ccccc2)cc1 | inactive: 2.7 | inactive: 0.925 | inactive: 3.4
CCOC(=O)C(C)=O [Ethyl pyruvate] | inactive: -0.717 | inactive: -0.741 | inactive: 1.1
O=C(CN1C(=O)C2(CCCC2)NC[C@@H]1c1cc(F)cc(F)c1)Nc1ccc2c(c1)C[C@@]1(C2)C(=O)Nc2ncccc21 | inactive: -0.483 | inactive: 0.853 | inactive: 2.3
COc1cc2nccc(Oc3ccc(NC(=O)C4(C(=O)Nc5ccc(F)cc5)CC4)cc3)c2cc1OC [Cabozantinib S-malate] | inactive: 0.698 | inactive: -1.33 | inactive: -0.711
C#Cc1c(Nc2ccc(C#N)cc2F)ncnc1OC1CCN(C(=O)OC(C)C)CC1 | inactive: -1.38 | inactive: -1.17 | inactive: -2.02
COc1ccc(S(=O)(=O)N2CCCC2C(=O)Nc2cc(C)cc(C)c2)cc1 (stereo not drawn) | inactive: -1.38 | inactive: -0.867 | inactive: -0.319
CC(=O)Oc1ccc(Oc2c(I)cc(C(=O)O)cc2I)cc1I | inactive: -0.0643 | inactive: -0.57 | inactive: -1.25
O=C(CCn1cnc2c(=O)[nH]cnc21)NCCCN1CCCC1=O | inactive: -0.867 | inactive: -0.272 | inactive: -0.332
C=C(NNC(=S)NNC(=S)Nc1ccccc1Cl)c1ccccn1 | inactive: 1.49 | inactive: -2.23 | inactive: 2.1
Cc1c(Cl)c(C(F)(F)F)nn1CC(=O)N1CCN(c2ccc(F)cc2)CC1 | inactive: -1.27 | inactive: -0.921 | inactive: -1.48
CC(C(=O)OCCCN1CCCCC1=O)c1cccc(C(=O)c2ccccc2)c1 (stereo not drawn) | inactive: 1.02 | inactive: -0.634 | inactive: 0.213
O=C(c1ccc2c(c1)OCO2)N1CCC(Cc2ccccc2)(C(=O)O)CC1 | inactive: -2.53 | – | inactive: 0.649
